# Reference: the supplement of paper PMC3334620
# Whole data set: some 33,000 sequences, median “E-score (-0.5 to 0.5)” near -8e-05, cut for the highest 2% near 0.23. The list shows a part of the results.
# Biological target: T1, Nrg2 (UniProt P38082)
# T1 sequence: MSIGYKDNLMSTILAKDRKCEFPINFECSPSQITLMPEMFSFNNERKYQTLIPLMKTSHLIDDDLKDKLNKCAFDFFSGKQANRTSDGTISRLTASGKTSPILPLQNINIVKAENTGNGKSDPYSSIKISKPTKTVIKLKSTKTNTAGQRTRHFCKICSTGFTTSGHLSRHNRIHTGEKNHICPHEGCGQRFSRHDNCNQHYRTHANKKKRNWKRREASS
# Experiment: PBM E-score (8-mer binding enrichment) (E-score (-0.5 to 0.5)); higher = stronger / more preferred TF binding
# Conditions: protein concentration: 100 nM; construct: GST-full length
# Summary of the method: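 The E-score, a modified Wilcoxon-Mann-Whitney statistic, was computed by the Universal PBM Analysis Suite for every ungapped eight-base word pooled with its reverse complement. Scans behind it were normalised with masliner after bound GST-tagged yeast transcription factors were detected with fluorescent anti-GST. The proteins, at about 100-200 nM, had been applied to universal all-10-mer Agilent arrays made double-stranded by primer extension.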
row,Sequence,PBM E-score
1,CGCACTGC,0.0273
2,CGTTTAAG,0.00912
3,AAGCGGGG,-0.179
4,ACGCAGGG,0.143
5,AACCATCG,0.116
6,AGCTCAGC,-0.0707
7,GGTACCGA,-0.28
8,ATTGTACC,0.0897
9,CTCACGGC,-0.187
10,CACAGCTG,-0.0153
11,TACGCCGA,-0.0919
12,GGCACTTA,-0.113
13,AAATAGGG,0.141
14,AGTCTTAG,-0.304
15,CAGTTAGG,0.0319
16,ACCTTGAG,-0.00603
17,CAGAATGG,0.126
18,ACCAGGGT,0.218
19,GAACAGTA,0.0804
20,GGGTAAAC,0.0156
21,GTTATACA,-0.0456
22,CCGGCCCC,-0.294
23,AACTGTAC,-0.214
24,GTGAATCA,-0.105
25,TCAATGCA,-0.183

# Copied from the list:
# PBM E-score, AAGCGGGG is entered as -0.179
# PBM E-score, ACCAGGGT is entered as 0.218
# PBM E-score, CTCACGGC is entered as -0.187
# PBM E-score, AGCTCAGC is entered as -0.0707
# PBM E-score, CGTTTAAG is entered as 0.00912
# PBM E-score, CACAGCTG is entered as -0.0153
# PBM E-score, TACGCCGA is entered as -0.0919

# Further records follow:

row,Sequence,PBM E-score
1,CTGATGTA,0.0586
2,AGCGAATA,0.0307
3,AGACGTCT,-0.057
4,AAATGTGT,0.184
5,AAATTCAC,0.0999
6,AGTTCGAG,0.223
7,CACCGAAG,0.117
8,ATGATCCC,0.0293
9,TGGTTGAA,0.0184
10,GGCTAAAC,-0.121
11,GATAAATA,0.262
12,GGATTATA,0.24
13,GGGCGCAA,0.0315
14,AACGTCAC,-0.00893
15,ATCATGCG,0.00732
16,CGGAGCAC,-0.148
17,CGCAAGGC,0.203
18,ATCCTACA,-0.0742
19,CGCGGGTC,0.18
20,ATTCAAAG,-0.0908
21,ACGGGGAG,-0.107
22,CGTAACAG,0.0832
23,CCTTAGTA,-0.00652
24,CAACGACA,-0.0277
25,CAGACCTA,-0.00546

row,Sequence,PBM E-score
1,AACTCCGC,-0.202
2,CTCGAAAA,0.0419
3,CAAAAACG,0.139
4,CAACCAAG,0.113
5,CGGGGGCA,-0.307
6,ACATGAGC,-0.022
7,GAACGATA,0.0121
8,AAGCCCGG,-0.131
9,AGATACCC,0.137
10,CGCTCATA,0.0692
11,AGTAACAG,0.00808
12,GACGAATC,0.0804
13,AAACCCTA,0.184
14,CAGACCCC,-0.239
15,ACCTCTGG,-0.115
16,GTGATAAC,-0.0858
17,ACAAATCA,0.158
18,AGAGATGG,0.124
19,CCCCAGGG,0.0737
20,TAGAGAGA,-0.012
21,GGATCACA,0.128
22,GCGTCGCC,-0.0506
23,CAATTGCC,-0.00722
24,CACCGCCA,0.0123
25,CTCCAACC,0.123

row,Sequence,PBM E-score
1,ATGCCCAC,0.0796
2,CGGTTCTA,-0.132
3,CATAATGG,0.0154
4,GTCGAATA,0.114
5,CCGTTACC,-0.0458
6,CACAGCGA,0.158
7,GATATGAA,0.108
8,ATACGCTA,-0.0508
9,AGACGGAG,-0.0234
10,ATTATGTA,0.0957
11,ATCTTAGA,0.0367
12,ACCAGTCT,-0.0931
13,CACTAATG,0.0572
14,ACTTGAAC,0.0162
15,ACTCCCCC,-0.351
16,ACGTCTGG,-0.0123
17,AAGTATAC,0.0772
18,GTGACGCA,-0.0619
19,ACCGGTTG,0.0147
20,CGTCTCTC,-0.0457
21,ACTCTTCA,0.118
22,AACTCTTG,0.0274
23,AACACGGC,0.0363
24,AGTCTGGG,-0.272
25,ATAAGGCC,-0.0222

row,Sequence,PBM E-score
1,AGACAGAT,0.214
2,AGTCGATA,-0.0127
3,AGATGGGA,-0.00983
4,AGCAATGC,0.164
5,TGTCATAA,0.0546
6,GCGACTCC,-0.328
7,CTCTGCAA,0.0425
8,ATTCCTAA,0.0764
9,CGACGTTC,-0.237
10,AAACGAAG,-0.0408
11,GATCAAAA,0.11
12,GTGCGCCA,-0.157
13,TGGCTAAA,-0.00206
14,GTAAAAAA,0.0495
15,ACTCCTCG,0.096
16,GAGCGATA,0.0384
17,ACAGTGCG,-0.0227
18,GCGCACAA,0.195
19,AAGAATAT,-0.144
20,CTAGTTGC,0.0733
21,AGTCGTTA,-0.029
22,CGTCCCCC,-0.423
23,ACGGTGTA,-0.0378
24,ATAATCGG,0.246
25,GCGGAAAC,-0.149

# Not a retest: entries from further up.
row,Sequence,PBM E-score
15,ACTCCTCG,0.096
16,GAGCGATA,0.0384

# Later entries:

row,Sequence,PBM E-score
1,ATCTGATG,-0.00567
2,CCTTGTTA,0.0691
3,ATACCATC,0.0382
4,GTATCTAA,0.119
5,GGCAACAC,-0.0515
6,ACAAAAAC,0.0302
7,GAACATAC,0.00771
8,TAACGAAA,0.154
9,AGGCAGTA,-0.185
10,TCCGTACA,0.146
11,ACGAGCGA,0.0157
12,GACTACAA,-0.117
13,GAATGGCA,0.0203
14,CAGGAGGA,-0.249
15,ATCTCGAC,0.1
16,CGCAGATA,0.144
17,AAGGGCCC,0.347
18,ATCACGCG,0.228
19,ATACTAGG,0.168
20,AAAAGGTG,-0.112
21,ATTCAAGG,0.00204
22,AACTGAGA,0.11
23,GATGATAA,0.0867
24,CACAAGCA,-0.137
25,GGGCAACA,0.0821

row,Sequence,PBM E-score
1,ACCAGCGT,-0.146
2,CCCAATCG,0.0369
3,ATCATGGG,0.104
4,AGCGTACA,-0.125
5,AGAAGTTA,0.0102
6,CCCCCGAG,-0.275
7,AGGCCCGG,-0.388
8,GGTAAGAC,-0.187
9,CTCAAATA,-0.0124
10,CTGATTTA,0.0778
11,AGCTGGAT,-0.0223
12,CTTATACA,-0.0688
13,ACAAGGCC,-0.159
14,GACACTGA,0.0497
15,CCTTGAAC,-0.0194
16,AAACTGGT,-0.0176
17,ACCAATCC,0.133
18,GTAGCACA,-0.0525
19,GAGTGTAC,-0.0919
20,AGAGTTTA,0.0568
21,CACGTCCG,-0.14
22,AGTGACGA,0.0685
23,AGAGACAT,0.0901
24,CGGACGGA,-0.176
25,GGGGTTAA,0.00165

row,Sequence,PBM E-score
1,ATGTTCCG,0.0682
2,AACCGGAT,0.0929
3,CCCGCACC,0.0135
4,ACAATTAG,-0.063
5,GATCATCC,0.1
6,AGCGACTA,-0.042
7,CTCGCGCC,-0.0298
8,ACATCCTA,0.0559
9,CAAGGCTA,-0.11
10,ACTCTTTA,-0.0446
11,GTGCGTGA,0.0942
12,AATGCGTA,-0.00291
13,CTAATAAC,0.117
14,AGTATAGG,-0.0405
15,CATGCAAC,0.158
16,AAAAGACC,-0.0302
17,CCAGCGAC,-0.00853
18,ATGCCGCC,-0.128
19,CTTGCATC,-0.0901
20,CTTGCGAA,0.195
21,ACTCGTTC,-0.0566
22,ATCGTCGG,-0.0565
23,ACTGCGTC,-0.197
24,GAACGCAA,0.116
25,ACGGAAAT,0.244

row,Sequence,PBM E-score
1,AACAAAAA,0.17
2,AGGTTAGG,0.145
3,ACCCAGGT,-0.258
4,CGCAACTC,0.147
5,GCGAGTCA,-0.0667
6,TAGCACCA,-0.0186
7,TGGGTTAA,-0.108
8,ACGTTACC,-0.17
9,CCAGGGAA,0.0205
10,GTGTCACA,-0.0111
11,CGATGGGA,-0.113
12,ACACCTGG,-0.00545
13,GAAGGTCC,-0.0364
14,ATGGTTCG,0.109
15,GGTCAATA,0.0756
16,ACGACGCG,0.114
17,ACGTACAG,-0.181
18,GCAGCAGC,-0.0495
19,AGGAGATG,-0.0887
